Experimental data reported in patent US20250340616A1, “NOVEL PEPTIDE MIMICS AND THEIR USE” (STIFTELSEN VECTIS, priority 2021, published 2025).
No constants are given. Whether binding was seen depends on the method and setting. A result given as binding can be weak or reduced; the word gives no strength.

Assays:
[1] = molecular target: HLA-DRB1*04:01 monomeric protein (human); test: competition assay against the HA peptide, DELFIA (FIG. 5)
[2] = molecular target: HLA-DRB1*04:01 monomeric protein (human); test: competition assay against the HA peptide, DELFIA

B1: vimentin 66-78 mimic with a glutamine in position 71 (SEQ ID NO. 6) (peptide)
peptide: SAVRLQSSVPGVR
binding [1]: binds
binding [2]: binds

B2: vimentin 66-78 mimic with a glutamine in position 71 and a phenylalanine in position 68 (SEQ ID NO. 8) (peptide)
peptide: SAFRLQSSVPGVR
binding [1]: binds
binding [2]: binds
